# Source: the supplement of paper PMC5407854, “Inhibitor of ppGalNAc-T3-mediated O-glycosylation blocks cancer cell invasiveness and lowers FGF23 levels” (eLife, 2017)
# This is one part of the list. Most entries show no effect beyond the scatter of the controls.
# Test system: ppGalNAc-T3 sensor
# Assay: T3 sensor activation Q score (MG/GFP ratio z-score vs DMSO controls) (SD units); higher = more sensor activation (inhibition of ppGalNAc-T3 glycosylation)
# Settings: HEK293 sensor cells; 10 µM; 6 h
# Protocol: (§1)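 Cells were treated with compound at 10 uM for 6 h, then MG/GFP ratio was read by flow cytometry (10,000 cells per well, duplicate wells). Q = (R - R_neg)/SD_neg relative to DMSO vehicle controls; the signal rises when the glycosyltransferase is inhibited.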
row,SMILES,T3 sensor activation Q score
1,CN(C)CC(O)Cn1c2ccccc2c2ccccc21 (stereo unspecified),1.8
2,C=CCn1ncc(OC)c(Cl)c1=O,-0.14
3,Cc1ccccc1OCCCN1CCCCC1,0.32
4,O=CNC(Cc1ccccc1)C(=O)O (stereo unspecified),0.365
5,COc1ccccc1C(CC(=O)c1ccccc1)CC(=O)c1ccccc1,-0.275
6,Cc1cc(C)[n+]2nc([S-])sc2n1,0.6
7,Fc1cccc(F)c1CN1CCN(C/C=C/c2ccccc2)CC1,0.14
8,O=C(O)c1ccccc1-c1ncc(-c2ccccc2)o1,-0.34
9,c1ccc(CN2CCN(Cc3cccs3)CC2)cc1,0.53
10,CC(=O)c1ccc(N2CCN(C(=O)c3ccc(F)cc3F)CC2)c(F)c1,0.175
11,Cc1nc2cc(CC(=O)O)ccc2s1,0.12

# Test system: ppGalNAc-T2 sensor
# Assay: T2 sensor activation Q score (MG/GFP ratio z-score vs DMSO controls) (SD units); higher = more sensor activation (inhibition of ppGalNAc-T2 glycosylation)
# Settings: HEK293 sensor cells; 10 µM; 6 h
# Protocol: as §1
row,SMILES,T2 sensor activation Q score
1,CC(=O)C1=C(O)C(=O)N(c2ccccn2)C1c1ccccc1F (stereo unspecified),0.31
2,Cc1ccccc1NC1=C(N2CCOCC2)C(=O)c2ccccc2C1=O,-0.565
3,O=C(Nc1cccc(Cl)c1)N1CCCCC1,1.52
4,Cc1cccc(N2CCN(Cc3ccc(Br)o3)CC2)c1C,0.635
5,Clc1ccc(CN2CCOCC2)cc1Cl,-0.855
6,COc1ccc(N2C(=O)C(O)=C(C(C)=O)C2c2ccc(OC)c(OC)c2)cc1 (stereo unspecified),-0.51
7,CCOc1ccc(NC(=O)Nc2ccccc2)cc1,1.5
8,COc1ccc(C(=O)NCCSC2CCCCC2)cc1,0.48
9,CN(C)CC(O)Cn1c2ccccc2c2ccccc21 (stereo unspecified),-1.4
10,COc1ccc(OC)c(NC(=O)C(c2ccccc2)c2ccccc2)c1,-0.14
11,C=CCn1ncc(OC)c(Cl)c1=O,0.66
12,Cc1ccccc1OCCCN1CCCCC1,-0.52
13,COc1ccc(-c2cnn(-c3ccccc3)c2N)cc1OC,1.36
14,O=CNC(Cc1ccccc1)C(=O)O (stereo unspecified),-0.6
15,Cc1ccc(S(=O)(=O)NC(C)C)cc1[N+](=O)[O-],-1.17
16,COc1ccccc1C(CC(=O)c1ccccc1)CC(=O)c1ccccc1,0.48
17,CC(=O)c1ccc(NC(=O)CN2CCCCC2)cc1,-1.12
18,Cc1ccccc1CN(C)CCN(C)C,0.19
19,O=C(O)c1ccc(S(=O)(=O)N2CCOCC2)cc1,-0.27
20,NC(=O)C1CCN(C2CC(=O)N(c3cccc(Cl)c3)C2=O)CC1 (stereo unspecified),0.165

# Sorted by count of non-hydrogen atoms (descending): some entries from above
row,SMILES,T2 sensor activation Q score
6,COc1ccc(N2C(=O)C(O)=C(C(C)=O)C2c2ccc(OC)c(OC)c2)cc1 (stereo unspecified),-0.51
2,Cc1ccccc1NC1=C(N2CCOCC2)C(=O)c2ccccc2C1=O,-0.565
4,Cc1cccc(N2CCN(Cc3ccc(Br)o3)CC2)c1C,0.635
8,COc1ccc(C(=O)NCCSC2CCCCC2)cc1,0.48
17,CC(=O)c1ccc(NC(=O)CN2CCCCC2)cc1,-1.12
19,O=C(O)c1ccc(S(=O)(=O)N2CCOCC2)cc1,-0.27
15,Cc1ccc(S(=O)(=O)NC(C)C)cc1[N+](=O)[O-],-1.17
3,O=C(Nc1cccc(Cl)c1)N1CCCCC1,1.52
5,Clc1ccc(CN2CCOCC2)cc1Cl,-0.855
14,O=CNC(Cc1ccccc1)C(=O)O (stereo unspecified),-0.6

# Later entries.

row,SMILES,T2 sensor activation Q score
1,Cc1cc(C)[n+]2nc([S-])sc2n1,0.035
2,COc1ccc(S(=O)(=O)Nc2cccc(Cl)c2Cl)cc1,-0.92
3,Fc1cccc(F)c1CN1CCN(C/C=C/c2ccccc2)CC1,0.025
4,CCc1c(O)nc(SC(C)CC)n(-c2ccccc2)c1=O (stereo unspecified),0.39
5,CC(NC(=O)c1ccc(Br)o1)c1ccccc1 (stereo unspecified),0.175
6,CCCN(CCO)Cc1cccc(F)c1,0.915
7,Cc1ccc(CN2CCN(C(=O)c3ccccc3F)CC2)cc1,0.06
8,CCN(CC)C(=O)C1CCCN(Cc2ccc(C)cc2)C1 (stereo unspecified),-0.09
9,O=C(O)c1ccccc1-c1ncc(-c2ccccc2)o1,-1.51
10,Nc1nnc(Cc2ccc([N+](=O)[O-])cc2)s1,-1.16
11,CCN(CCN(C)C)Cc1cccc(Br)c1,0.365
12,c1ccc(CN2CCN(Cc3cccs3)CC2)cc1,1.35
13,CCN(C(=O)C(C)Oc1ccccc1)c1ccccc1C (stereo unspecified),-0.035
14,CC(=O)c1ccc(N2CCN(C(=O)c3ccc(F)cc3F)CC2)c(F)c1,-0.025
15,CSc1nnc(-c2ccccc2Cl)o1,0.735
16,Cc1nc2cc(CC(=O)O)ccc2s1,1.79
17,CCn1c(C)nc2cc(Cl)ccc21,-0.285
18,CC(=O)C1=C(O)C(=O)N(C)C1c1ccc(Cl)cc1 (stereo unspecified),0.05
19,O=C(O)CCC(=O)Nc1ccc(Br)c(Cl)c1,-0.025
20,O=C(NCc1ccc(Cl)cc1)c1cccnc1,0.875
